Experimental data published in the supplement of paper PMC10849652.
The list shows a part of the results.

The chains behind the UniProt entries cited, without tags or fusion partners. Where a name states a change or a piece, a line headed by the entry shows the natural chain unless it says otherwise.
UniProt Q969V5: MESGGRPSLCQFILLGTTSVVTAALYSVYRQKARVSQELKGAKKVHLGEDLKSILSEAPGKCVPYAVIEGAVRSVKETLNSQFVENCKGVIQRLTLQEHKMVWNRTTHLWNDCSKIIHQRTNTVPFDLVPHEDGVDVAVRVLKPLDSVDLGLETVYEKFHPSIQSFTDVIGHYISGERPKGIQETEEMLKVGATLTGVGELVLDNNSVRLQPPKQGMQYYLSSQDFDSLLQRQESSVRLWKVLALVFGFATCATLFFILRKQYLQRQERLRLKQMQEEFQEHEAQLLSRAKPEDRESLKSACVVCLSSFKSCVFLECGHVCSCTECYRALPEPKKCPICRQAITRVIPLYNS
UniProt Q9BQG0: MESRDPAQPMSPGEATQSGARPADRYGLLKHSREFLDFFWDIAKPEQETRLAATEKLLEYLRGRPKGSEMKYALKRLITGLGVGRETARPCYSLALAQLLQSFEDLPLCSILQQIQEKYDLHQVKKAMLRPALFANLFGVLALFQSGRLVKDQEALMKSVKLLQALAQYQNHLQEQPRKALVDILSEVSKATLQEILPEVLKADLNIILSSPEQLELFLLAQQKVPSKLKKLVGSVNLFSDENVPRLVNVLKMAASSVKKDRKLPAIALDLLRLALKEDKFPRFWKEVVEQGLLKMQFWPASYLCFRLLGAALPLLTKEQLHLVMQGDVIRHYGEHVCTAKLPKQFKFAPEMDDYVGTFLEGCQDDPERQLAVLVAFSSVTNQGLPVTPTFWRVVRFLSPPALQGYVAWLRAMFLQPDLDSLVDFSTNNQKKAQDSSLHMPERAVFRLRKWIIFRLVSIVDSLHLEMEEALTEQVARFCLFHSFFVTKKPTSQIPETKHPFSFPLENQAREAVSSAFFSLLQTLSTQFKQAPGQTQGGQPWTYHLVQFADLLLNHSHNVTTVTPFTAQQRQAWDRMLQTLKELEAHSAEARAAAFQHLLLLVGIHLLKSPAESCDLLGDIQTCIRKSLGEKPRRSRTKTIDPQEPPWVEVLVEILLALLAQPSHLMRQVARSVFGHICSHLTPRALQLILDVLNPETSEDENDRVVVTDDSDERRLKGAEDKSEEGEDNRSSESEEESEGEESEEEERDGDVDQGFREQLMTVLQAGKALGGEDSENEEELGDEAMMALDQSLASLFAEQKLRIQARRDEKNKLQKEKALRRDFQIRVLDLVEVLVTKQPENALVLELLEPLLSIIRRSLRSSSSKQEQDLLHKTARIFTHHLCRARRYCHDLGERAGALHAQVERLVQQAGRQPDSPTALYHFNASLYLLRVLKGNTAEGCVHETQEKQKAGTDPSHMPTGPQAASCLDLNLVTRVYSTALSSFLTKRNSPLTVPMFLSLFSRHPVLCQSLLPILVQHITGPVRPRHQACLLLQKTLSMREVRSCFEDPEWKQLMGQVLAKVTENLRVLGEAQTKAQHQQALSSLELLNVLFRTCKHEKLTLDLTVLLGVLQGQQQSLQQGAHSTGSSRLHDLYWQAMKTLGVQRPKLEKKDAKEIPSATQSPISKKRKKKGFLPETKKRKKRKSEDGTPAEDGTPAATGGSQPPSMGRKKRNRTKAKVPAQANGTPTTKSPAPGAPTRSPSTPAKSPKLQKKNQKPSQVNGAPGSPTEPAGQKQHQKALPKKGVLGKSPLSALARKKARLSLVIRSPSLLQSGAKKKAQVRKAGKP
UniProt P55209: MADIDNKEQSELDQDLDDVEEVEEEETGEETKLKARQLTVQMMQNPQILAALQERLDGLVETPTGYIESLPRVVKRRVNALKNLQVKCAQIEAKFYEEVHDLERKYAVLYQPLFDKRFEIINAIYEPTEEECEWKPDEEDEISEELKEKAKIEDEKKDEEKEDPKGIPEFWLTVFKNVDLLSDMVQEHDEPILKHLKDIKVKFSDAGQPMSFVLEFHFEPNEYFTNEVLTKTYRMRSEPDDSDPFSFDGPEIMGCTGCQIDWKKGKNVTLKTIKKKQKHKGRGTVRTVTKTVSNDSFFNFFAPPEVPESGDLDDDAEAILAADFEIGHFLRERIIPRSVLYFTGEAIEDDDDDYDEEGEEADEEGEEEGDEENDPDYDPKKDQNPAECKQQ
UniProt Q99417: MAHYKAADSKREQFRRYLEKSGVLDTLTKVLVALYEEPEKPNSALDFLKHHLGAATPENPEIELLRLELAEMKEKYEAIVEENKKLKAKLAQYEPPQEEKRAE
UniProt Q8NI08: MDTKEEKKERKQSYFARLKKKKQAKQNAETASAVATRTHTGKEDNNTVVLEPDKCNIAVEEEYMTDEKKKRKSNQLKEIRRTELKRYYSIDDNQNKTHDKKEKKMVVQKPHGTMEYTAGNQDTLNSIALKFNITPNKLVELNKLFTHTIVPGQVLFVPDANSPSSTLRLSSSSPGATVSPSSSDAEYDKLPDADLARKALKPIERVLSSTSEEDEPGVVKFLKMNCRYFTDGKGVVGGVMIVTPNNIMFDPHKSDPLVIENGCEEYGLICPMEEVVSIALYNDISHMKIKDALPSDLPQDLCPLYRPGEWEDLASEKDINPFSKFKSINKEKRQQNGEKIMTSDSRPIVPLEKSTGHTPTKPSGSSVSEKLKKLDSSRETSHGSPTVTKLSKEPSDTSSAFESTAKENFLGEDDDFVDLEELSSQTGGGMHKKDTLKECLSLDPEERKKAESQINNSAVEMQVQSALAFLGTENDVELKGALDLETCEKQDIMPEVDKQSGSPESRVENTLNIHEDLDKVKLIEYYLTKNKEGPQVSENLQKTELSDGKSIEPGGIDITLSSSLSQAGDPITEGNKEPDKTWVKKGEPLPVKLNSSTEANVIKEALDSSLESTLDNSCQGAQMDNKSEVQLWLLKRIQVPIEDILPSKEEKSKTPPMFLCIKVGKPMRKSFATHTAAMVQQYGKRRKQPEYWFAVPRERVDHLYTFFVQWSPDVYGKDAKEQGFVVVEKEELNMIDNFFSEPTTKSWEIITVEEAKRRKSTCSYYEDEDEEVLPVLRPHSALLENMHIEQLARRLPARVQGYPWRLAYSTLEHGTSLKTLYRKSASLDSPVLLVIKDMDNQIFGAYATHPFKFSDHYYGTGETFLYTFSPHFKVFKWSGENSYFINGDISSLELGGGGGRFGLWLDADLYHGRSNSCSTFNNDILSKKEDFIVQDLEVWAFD
UniProt Q6IBW4: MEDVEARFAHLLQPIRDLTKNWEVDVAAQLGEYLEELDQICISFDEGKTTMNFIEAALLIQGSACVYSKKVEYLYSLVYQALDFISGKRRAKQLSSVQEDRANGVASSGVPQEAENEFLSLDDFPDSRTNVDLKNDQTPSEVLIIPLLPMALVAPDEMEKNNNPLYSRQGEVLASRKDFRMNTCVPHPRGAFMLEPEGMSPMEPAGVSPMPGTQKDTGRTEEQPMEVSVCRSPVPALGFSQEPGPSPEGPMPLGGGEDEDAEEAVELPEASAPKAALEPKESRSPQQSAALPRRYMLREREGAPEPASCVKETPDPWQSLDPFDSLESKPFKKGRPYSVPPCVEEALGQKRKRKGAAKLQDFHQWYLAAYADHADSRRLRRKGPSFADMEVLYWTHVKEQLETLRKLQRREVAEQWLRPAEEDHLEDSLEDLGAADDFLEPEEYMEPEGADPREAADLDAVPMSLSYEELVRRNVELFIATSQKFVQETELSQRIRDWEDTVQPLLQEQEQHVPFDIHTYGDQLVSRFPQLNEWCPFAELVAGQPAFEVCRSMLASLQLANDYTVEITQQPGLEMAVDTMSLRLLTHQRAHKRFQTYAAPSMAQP
UniProt P17050: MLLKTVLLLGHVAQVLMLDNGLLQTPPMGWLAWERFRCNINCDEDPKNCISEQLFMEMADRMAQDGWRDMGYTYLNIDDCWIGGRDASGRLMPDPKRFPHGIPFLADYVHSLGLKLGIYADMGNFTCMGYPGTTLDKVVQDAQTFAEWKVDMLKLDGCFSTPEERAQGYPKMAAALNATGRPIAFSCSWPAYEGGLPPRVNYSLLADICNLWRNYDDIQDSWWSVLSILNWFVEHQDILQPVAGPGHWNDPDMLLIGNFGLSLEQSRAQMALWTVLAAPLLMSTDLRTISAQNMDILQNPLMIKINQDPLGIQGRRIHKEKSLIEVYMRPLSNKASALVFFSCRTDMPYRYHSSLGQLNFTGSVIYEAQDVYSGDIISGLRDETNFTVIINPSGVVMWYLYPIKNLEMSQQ
UniProt Q6P582, whole entry, looked up: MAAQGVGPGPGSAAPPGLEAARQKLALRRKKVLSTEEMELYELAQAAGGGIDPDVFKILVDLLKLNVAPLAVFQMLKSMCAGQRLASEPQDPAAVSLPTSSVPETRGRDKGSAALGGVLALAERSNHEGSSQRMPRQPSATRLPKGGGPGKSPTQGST
UniProt Q9Y6Q9, whole entry, looked up: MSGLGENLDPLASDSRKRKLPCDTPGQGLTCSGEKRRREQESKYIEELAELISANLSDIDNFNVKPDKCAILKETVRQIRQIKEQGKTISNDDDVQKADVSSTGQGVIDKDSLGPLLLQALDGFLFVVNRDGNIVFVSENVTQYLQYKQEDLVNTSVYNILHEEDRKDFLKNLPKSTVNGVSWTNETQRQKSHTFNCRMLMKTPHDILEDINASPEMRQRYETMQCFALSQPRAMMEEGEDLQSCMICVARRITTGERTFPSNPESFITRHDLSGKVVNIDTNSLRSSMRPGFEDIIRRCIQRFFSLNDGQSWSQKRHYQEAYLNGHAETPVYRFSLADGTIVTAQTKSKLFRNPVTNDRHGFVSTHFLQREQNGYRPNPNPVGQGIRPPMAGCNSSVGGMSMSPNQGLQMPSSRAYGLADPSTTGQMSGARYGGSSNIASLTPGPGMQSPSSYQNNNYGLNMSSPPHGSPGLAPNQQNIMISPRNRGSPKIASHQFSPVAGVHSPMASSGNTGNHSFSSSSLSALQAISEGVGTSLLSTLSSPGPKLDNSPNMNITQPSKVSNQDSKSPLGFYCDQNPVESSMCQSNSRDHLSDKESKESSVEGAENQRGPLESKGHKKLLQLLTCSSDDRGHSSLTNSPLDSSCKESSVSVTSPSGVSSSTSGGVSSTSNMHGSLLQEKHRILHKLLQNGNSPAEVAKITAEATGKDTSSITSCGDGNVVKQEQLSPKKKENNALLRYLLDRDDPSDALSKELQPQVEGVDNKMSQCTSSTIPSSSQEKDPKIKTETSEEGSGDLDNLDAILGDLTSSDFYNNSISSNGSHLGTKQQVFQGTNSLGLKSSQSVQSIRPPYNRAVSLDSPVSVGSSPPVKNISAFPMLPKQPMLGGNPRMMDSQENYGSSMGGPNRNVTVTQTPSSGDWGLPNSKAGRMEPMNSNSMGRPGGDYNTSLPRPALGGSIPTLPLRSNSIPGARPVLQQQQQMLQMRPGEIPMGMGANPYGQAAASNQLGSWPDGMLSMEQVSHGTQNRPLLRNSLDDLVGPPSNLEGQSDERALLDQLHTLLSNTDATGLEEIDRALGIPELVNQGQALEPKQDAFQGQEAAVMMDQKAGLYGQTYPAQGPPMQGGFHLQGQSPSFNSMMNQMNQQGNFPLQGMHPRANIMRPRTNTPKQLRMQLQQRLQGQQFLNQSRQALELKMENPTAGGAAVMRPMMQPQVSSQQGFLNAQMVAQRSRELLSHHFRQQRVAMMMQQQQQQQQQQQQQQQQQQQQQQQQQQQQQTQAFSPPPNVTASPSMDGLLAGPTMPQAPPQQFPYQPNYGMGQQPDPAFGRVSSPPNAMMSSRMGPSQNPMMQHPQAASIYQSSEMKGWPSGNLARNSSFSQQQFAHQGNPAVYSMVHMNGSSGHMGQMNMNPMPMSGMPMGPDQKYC
UniProt Q9BTX1: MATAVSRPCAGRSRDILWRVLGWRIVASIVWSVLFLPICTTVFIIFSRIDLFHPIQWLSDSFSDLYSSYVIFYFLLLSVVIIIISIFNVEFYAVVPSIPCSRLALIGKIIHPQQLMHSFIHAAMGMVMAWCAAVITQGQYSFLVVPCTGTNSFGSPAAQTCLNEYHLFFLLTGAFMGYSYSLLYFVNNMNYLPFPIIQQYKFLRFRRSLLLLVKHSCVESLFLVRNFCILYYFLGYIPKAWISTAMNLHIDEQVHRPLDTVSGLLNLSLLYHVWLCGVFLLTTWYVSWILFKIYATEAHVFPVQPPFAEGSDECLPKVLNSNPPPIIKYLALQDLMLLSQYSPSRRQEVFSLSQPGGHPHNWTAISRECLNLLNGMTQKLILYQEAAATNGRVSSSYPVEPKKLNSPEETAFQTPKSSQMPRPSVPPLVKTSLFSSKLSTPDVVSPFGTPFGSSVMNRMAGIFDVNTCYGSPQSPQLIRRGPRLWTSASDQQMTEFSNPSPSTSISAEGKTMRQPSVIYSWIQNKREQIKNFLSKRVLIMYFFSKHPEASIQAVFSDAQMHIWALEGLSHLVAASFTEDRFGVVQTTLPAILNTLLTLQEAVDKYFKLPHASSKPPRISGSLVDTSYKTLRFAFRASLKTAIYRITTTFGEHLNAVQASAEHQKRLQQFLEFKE

What was measured:
Experiment in all cases: log2 fold change, soluble protein after heating vs DMSO (PISA); higher = thermal stabilisation; K562 lysate, 10 uM; active = over 0.2 and 3.5 SD of the protein, either way, in both replicates (recomputed)
vemurafenib = compound: CCCS(=O)(=O)Nc1ccc(F)c(C(=O)c2c[nH]c3ncc(-c4ccc(Cl)cc4)cc23)c1F [vemurafenib]
Procedure, shortened: (§1)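 The values are log-two fold changes in thermal stability compared with solvent controls and come from duplicates. They were obtained by TMTpro 16plex LC-MS/MS, with channel sums equalised, on the supernatant after 21,000xg for 90 min. That supernatant came from crude K562 extract at 1 mg/mL protein treated with 10 μM compound for 30 min, heated for 3 min across 48°C-58°C, pooled and brought to 0.5% NP-40 at 4°C.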

[1] = compound: CCCS(=O)(=O)Nc1ccc(F)c(C(=O)c2c[nH]c3ncc(Cl)cc23)c1F
Procedure, shortened: as §1

barasertib = compound: CCN(CCCOc1ccc2c(Nc3cc(CC(=O)Nc4cccc(F)c4)[nH]n3)ncnc2c1)CCOP(=O)(O)O [barasertib]
Procedure, shortened: as §1

[2] = compound: CC[C@@H]1C(=O)N(C)c2cnc(Nc3ccc(C(=O)NC4CCN(C)CC4)cc3OC)nc2N1C1CCCC1
Procedure, shortened: as §1

volasertib = compound: CC[C@@H]1C(=O)N(C)c2cnc(Nc3ccc(C(=O)N[C@H]4CC[C@H](N5CCN(CC6CC6)CC5)CC4)cc3OC)nc2N1C(C)C [volasertib]
Procedure, shortened: as §1

[3] = compound: CCn1c(C(=O)N(C2CC2)C2CC2)cc2c3c(ncn3C)c(Nc3cc(C)n(C)n3)nc21
Procedure, shortened: as §1

[4] = compound: CCn1cc(-c2ccnc3[nH]c(-c4cccc(CN(C)C)c4)cc23)c(-c2ccc(NC(=O)N(C)C)cc2)n1
Procedure, shortened: as §1

[5] = compound: CN1CCC(CNc2ccc3ncc(-c4cccc(OC(F)(F)F)c4)n3n2)CC1
Procedure, shortened: as §1

saracatinib = compound: CN1CCN(CCOc2cc(OC3CCOCC3)c3c(Nc4c(Cl)ccc5c4OCO5)ncnc3c2)CC1 [saracatinib]
Procedure, shortened: as §1

sotrastaurin = compound: CN1CCN(c2nc(C3=C(c4c[nH]c5ccccc45)C(=O)NC3=O)c3ccccc3n2)CC1 [sotrastaurin]
Procedure, shortened: as §1

alvocidib = compound: CN1CC[C@H](c2c(O)cc(O)c3c(=O)cc(-c4ccccc4Cl)oc23)[C@H](O)C1 [alvocidib]
Procedure, shortened: as §1

Tubastatin A = compound: CN1CCc2c(c3ccccc3n2Cc2ccc(C(=O)NO)cc2)C1 [Tubastatin A]
Procedure, shortened: as §1

[6] = compound: CNC(=O)C1=CC=CC=C1NC2=NC(=NC=C2Cl)NC3=C(C=C(C=C3)N4CCOCC4)OC
Procedure, shortened: as §1

defactinib = compound: CNC(=O)c1ccc(Nc2ncc(C(F)(F)F)c(NCc3nccnc3N(C)S(C)(=O)=O)n2)cc1 [defactinib]
Procedure, shortened: as §1

[7] = compound: CNc1nc(-c2ccc3c(N)n[nH]c3c2)cc(N2C[C@@H](C(=O)NC3CCCCC3)CC[C@H]2C)n1
Procedure, shortened: as §1

encorafenib = compound: COC(=O)N[C@@H](C)CNc1nccc(-c2cn(C(C)C)nc2-c2cc(Cl)cc(NS(C)(=O)=O)c2F)n1 [encorafenib]
Procedure, shortened: as §1

[8] = compound: COC(=O)[C@H](CCSC)NC(=O)C1=C(C=C(C=C1)NC[C@H](CS)N)C2=CC=CC=C2
Procedure, shortened: as §1

alisertib = compound: COc1cc(Nc2ncc3c(n2)-c2ccc(Cl)cc2C(c2c(F)cccc2OC)=NC3)ccc1C(=O)O [alisertib]
Procedure, shortened: as §1

[9] = compound: COc1cc2nc(-c3cc(F)ccc3O)nc(N[C@@H]3CNC[C@H]3C(C)(C)O)c2cc1OC
Procedure, shortened: as §1

gefitinib = compound: COc1cc2ncnc(Nc3ccc(F)c(Cl)c3)c2cc1OCCCN1CCOCC1 [gefitinib]
Procedure, shortened: as §1

| Target | log2 fold change (vemurafenib) | log2 fold change [1] | log2 fold change (barasertib) | log2 fold change [2] | log2 fold change (volasertib) | log2 fold change [3] | log2 fold change [4] | log2 fold change [5] | log2 fold change (saracatinib) | log2 fold change (sotrastaurin) | log2 fold change (alvocidib) | log2 fold change (Tubastatin A) | log2 fold change [6] | log2 fold change (defactinib) | log2 fold change [7] | log2 fold change (encorafenib) | log2 fold change [8] | log2 fold change (alisertib) | log2 fold change [9] | log2 fold change (gefitinib) |
| --- | --- | --- | --- | --- | --- | --- | --- | --- | --- | --- | --- | --- | --- | --- | --- | --- | --- | --- | --- | --- |
| NCKAP1 isoform 2 (UniProt Q9Y2A7) | inactive: -0.014 | inactive: 0 | inactive: -0.007 | inactive: -0.011 | inactive: -0.028 | inactive: 0.021 | inactive: 0.029 | inactive: -0.016 | inactive: -0.008 | inactive: 0.01 | inactive: -0.011 | inactive: 0.025 | inactive: 0.017 | inactive: -0.011 | inactive: -0.031 | inactive: 0.005 | inactive: -0.042 | inactive: -0.015 | inactive: 0.002 | inactive: 0.002 |
| MUL1 (UniProt Q969V5) | inactive: 0.023 | inactive: 0.009 | inactive: 0.025 | inactive: -0.007 | inactive: -0.031 | inactive: -0.016 | inactive: 0.176 | inactive: -0.044 | inactive: 0.047 | inactive: 0.007 | inactive: -0.008 | inactive: 0.073 | inactive: -0.037 | inactive: 0.027 | inactive: -0.001 | inactive: 0.008 | inactive: -0.014 | inactive: -0.012 | inactive: -0.005 | inactive: 0.024 |
| MYBBP1A isoform 2 (UniProt Q9BQG0) | inactive: 0.017 | inactive: 0.032 | inactive: 0.021 | inactive: -0.048 | inactive: 0.004 | inactive: 0.034 | inactive: 0.032 | inactive: -0.038 | inactive: 0.007 | inactive: 0.008 | inactive: 0.051 | inactive: -0.089 | inactive: -0.008 | inactive: -0.044 | inactive: 0.012 | inactive: 0.027 | inactive: 0.004 | inactive: 0.007 | inactive: -0.011 | inactive: -0.011 |
| NAA15 (UniProt Q9BXJ9) | inactive: -0.034 | inactive: 0.004 | inactive: 0.006 | inactive: -0.042 | inactive: -0.017 | inactive: 0.018 | inactive: 0.031 | inactive: -0.004 | inactive: -0.009 | inactive: -0.004 | inactive: 0.024 | inactive: -0.007 | inactive: -0.009 | inactive: -0.008 | inactive: -0.033 | inactive: -0.011 | inactive: 0.073 | inactive: 0.014 | inactive: -0.013 | inactive: 0.002 |
| NAP1L1 (UniProt P55209) | inactive: -0.001 | inactive: 0.004 | inactive: -0.102 | inactive: 0.025 | inactive: -0.019 | inactive: 0.024 | inactive: 0.218 | inactive: -0.031 | inactive: -0.003 | inactive: 0.007 | inactive: 0.003 | inactive: 0.035 | inactive: -0.013 | inactive: 0.004 | inactive: 0.018 | inactive: 0.008 | inactive: 0.012 | inactive: 0.008 | inactive: -0.097 | inactive: 0.038 |
| MYH9 (UniProt P35579) | inactive: -0.009 | inactive: 0.042 | inactive: -0.002 | inactive: 0.006 | inactive: -0.013 | inactive: -0.007 | inactive: 0.013 | inactive: -0.006 | inactive: 0.019 | inactive: 0.007 | inactive: -0.005 | inactive: 0.026 | inactive: -0.017 | inactive: -0.01 | inactive: 0.032 | inactive: -0.032 | inactive: 0.025 | inactive: -0.009 | inactive: 0.017 | inactive: -0.029 |
| NCK1 (UniProt P16333) | inactive: 0.049 | inactive: 0.003 | inactive: -0.008 | inactive: 0.068 | inactive: -0.011 | inactive: -0.025 | inactive: 0.067 | inactive: -0.05 | inactive: 0.015 | inactive: 0.014 | inactive: 0 | inactive: -0.097 | inactive: 0.023 | inactive: -0.02 | inactive: -0.008 | inactive: 0.008 | inactive: -0.068 | inactive: -0.003 | inactive: -0.007 | inactive: 0.026 |
| MYCBP (UniProt Q99417) | inactive: -0.001 | inactive: 0 | inactive: 0.16 | inactive: -0.003 | inactive: 0.044 | inactive: -0.007 | active: -0.589 | inactive: 0.189 | inactive: 0.021 | inactive: 0.035 | inactive: -0.244 | inactive: 0.045 | inactive: -0.02 | inactive: 0.022 | inactive: -0.031 | inactive: 0.005 | inactive: -0.069 | inactive: 0.022 | inactive: -0.001 | inactive: -0.029 |
| NCOA7 (UniProt Q8NI08) | inactive: -0.001 | inactive: 0.036 | inactive: -0.015 | inactive: 0.018 | inactive: -0.031 | inactive: -0.007 | inactive: 0.029 | inactive: -0.044 | inactive: 0.014 | inactive: 0.005 | inactive: -0.012 | inactive: -0.051 | inactive: 0.049 | inactive: -0.022 | inactive: 0.066 | inactive: -0.003 | inactive: 0.001 | inactive: 0.008 | inactive: -0.004 | inactive: 0.006 |
| NCAPH2 (UniProt Q6IBW4) | inactive: -0.044 | inactive: 0.027 | inactive: 0.058 | inactive: 0.027 | inactive: -0.002 | inactive: -0.014 | inactive: -0.032 | inactive: 0.02 | inactive: 0.001 | inactive: 0.03 | inactive: 0.038 | inactive: -0.193 | inactive: 0 | inactive: 0.005 | inactive: -0.084 | inactive: 0.064 | inactive: -0.039 | inactive: -0.027 | inactive: 0.01 | inactive: -0.048 |
| NAGA (UniProt P17050) | inactive: -0.001 | inactive: 0.031 | inactive: -0.043 | inactive: 0.019 | inactive: 0.006 | inactive: -0.022 | inactive: 0.052 | inactive: 0.037 | inactive: -0.02 | inactive: 0.018 | inactive: 0 | inactive: 0.024 | inactive: 0.053 | inactive: 0.012 | inactive: 0.016 | inactive: 0.044 | inactive: -0.021 | inactive: 0.001 | inactive: 0.003 | inactive: 0.102 |
| MZT2A (UniProt Q6P582) | inactive: 0.027 | inactive: -0.021 | inactive: -0.022 | inactive: 0.07 | inactive: 0.055 | inactive: 0.218 | inactive: 0.112 | inactive: -0.105 | inactive: 0 | inactive: -0.086 | inactive: 0.083 | inactive: -0.042 | inactive: -0.046 | inactive: -0.039 | inactive: -0.041 | inactive: 0.005 | inactive: -0.24 | inactive: 0.103 | inactive: -0.032 | inactive: 0.027 |
| NCOA3 (UniProt Q9Y6Q9) | inactive: 0.005 | inactive: -0.006 | inactive: 0.004 | inactive: 0.116 | inactive: -0.007 | inactive: -0.005 | inactive: 0.058 | inactive: 0.037 | inactive: 0.007 | inactive: 0.022 | inactive: 0.009 | inactive: 0.016 | inactive: 0.003 | inactive: 0.002 | inactive: 0.025 | inactive: 0.079 | inactive: -0.026 | inactive: 0 | inactive: -0.016 | inactive: 0.077 |
| NDC1 (UniProt Q9BTX1) | inactive: 0.053 | inactive: -0.051 | inactive: 0.075 | inactive: 0.081 | inactive: 0.016 | inactive: -0.02 | inactive: -0.3 | inactive: 0.155 | inactive: 0.032 | inactive: 0.011 | inactive: -0.131 | inactive: -0.046 | inactive: -0.001 | inactive: -0.058 | inactive: -0.044 | inactive: 0.03 | active: -0.297 | inactive: 0.011 | inactive: 0.047 | inactive: -0.031 |
| NCBP1 (UniProt Q09161) | inactive: -0.004 | inactive: 0.023 | inactive: 0.014 | inactive: -0.038 | inactive: -0.016 | inactive: -0.004 | inactive: -0.093 | inactive: 0.035 | inactive: 0.003 | inactive: 0.04 | inactive: -0.009 | inactive: -0.076 | inactive: -0.013 | inactive: -0.013 | inactive: -0.022 | inactive: 0.021 | inactive: 0.019 | inactive: 0.014 | inactive: 0.002 | inactive: 0.003 |

Part of the list above, with tabs:
Target	log2 fold change (vemurafenib)	log2 fold change [1]	log2 fold change (barasertib)	log2 fold change [2]	log2 fold change (volasertib)	log2 fold change [3]	log2 fold change [4]	log2 fold change [5]	log2 fold change (saracatinib)	log2 fold change (sotrastaurin)	log2 fold change (alvocidib)	log2 fold change (Tubastatin A)	log2 fold change [6]	log2 fold change (defactinib)	log2 fold change [7]	log2 fold change (encorafenib)	log2 fold change [8]	log2 fold change (alisertib)	log2 fold change [9]	log2 fold change (gefitinib)
NDC1 (UniProt Q9BTX1)	inactive: 0.053	inactive: -0.051	inactive: 0.075	inactive: 0.081	inactive: 0.016	inactive: -0.02	inactive: -0.3	inactive: 0.155	inactive: 0.032	inactive: 0.011	inactive: -0.131	inactive: -0.046	inactive: -0.001	inactive: -0.058	inactive: -0.044	inactive: 0.03	active: -0.297	inactive: 0.011	inactive: 0.047	inactive: -0.031
NCBP1 (UniProt Q09161)	inactive: -0.004	inactive: 0.023	inactive: 0.014	inactive: -0.038	inactive: -0.016	inactive: -0.004	inactive: -0.093	inactive: 0.035	inactive: 0.003	inactive: 0.04	inactive: -0.009	inactive: -0.076	inactive: -0.013	inactive: -0.013	inactive: -0.022	inactive: 0.021	inactive: 0.019	inactive: 0.014	inactive: 0.002	inactive: 0.003
